Test results taken from the supplement of paper PMC12823440, “Inhibitors supercharge kinase turnover through native proteolytic circuits” (Nature, 2025).
The list shows a part of the results. Hit calls seldom repeat between salt and free forms of one compound.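 In K562 cells expressing nanoluciferase-fused kinases, luminescence was recorded at 4 h intervals between 2 and 18 h, normalized as percent of control with DMSO at 100% and a positive control at 0%. A significant (2 sigma) signal drop marks a time point as decreased. The authors' rule for a hit is not shown and takes in more than the number of time points.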

Sequences of proteins named here, by UniProt entry; tags and fusion partners are left off. A change or cut given only in a name is not applied to a line headed by its entry.
UniProt O15530: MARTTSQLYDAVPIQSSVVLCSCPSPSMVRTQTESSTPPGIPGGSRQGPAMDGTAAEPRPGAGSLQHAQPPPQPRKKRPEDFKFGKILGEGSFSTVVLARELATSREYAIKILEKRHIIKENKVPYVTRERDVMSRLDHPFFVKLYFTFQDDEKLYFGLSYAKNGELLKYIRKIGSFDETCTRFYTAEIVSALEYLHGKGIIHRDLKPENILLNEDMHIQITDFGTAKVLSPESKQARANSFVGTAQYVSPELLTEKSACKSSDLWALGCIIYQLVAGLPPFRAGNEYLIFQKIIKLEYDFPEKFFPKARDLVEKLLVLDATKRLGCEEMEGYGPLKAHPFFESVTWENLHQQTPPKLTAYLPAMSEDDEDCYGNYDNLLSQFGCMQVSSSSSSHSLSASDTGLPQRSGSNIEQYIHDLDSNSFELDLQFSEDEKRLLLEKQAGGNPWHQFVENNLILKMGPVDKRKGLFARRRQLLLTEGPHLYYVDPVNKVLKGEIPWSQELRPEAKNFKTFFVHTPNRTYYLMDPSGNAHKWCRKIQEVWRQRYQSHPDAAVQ
UniProt P42356, whole entry, looked up: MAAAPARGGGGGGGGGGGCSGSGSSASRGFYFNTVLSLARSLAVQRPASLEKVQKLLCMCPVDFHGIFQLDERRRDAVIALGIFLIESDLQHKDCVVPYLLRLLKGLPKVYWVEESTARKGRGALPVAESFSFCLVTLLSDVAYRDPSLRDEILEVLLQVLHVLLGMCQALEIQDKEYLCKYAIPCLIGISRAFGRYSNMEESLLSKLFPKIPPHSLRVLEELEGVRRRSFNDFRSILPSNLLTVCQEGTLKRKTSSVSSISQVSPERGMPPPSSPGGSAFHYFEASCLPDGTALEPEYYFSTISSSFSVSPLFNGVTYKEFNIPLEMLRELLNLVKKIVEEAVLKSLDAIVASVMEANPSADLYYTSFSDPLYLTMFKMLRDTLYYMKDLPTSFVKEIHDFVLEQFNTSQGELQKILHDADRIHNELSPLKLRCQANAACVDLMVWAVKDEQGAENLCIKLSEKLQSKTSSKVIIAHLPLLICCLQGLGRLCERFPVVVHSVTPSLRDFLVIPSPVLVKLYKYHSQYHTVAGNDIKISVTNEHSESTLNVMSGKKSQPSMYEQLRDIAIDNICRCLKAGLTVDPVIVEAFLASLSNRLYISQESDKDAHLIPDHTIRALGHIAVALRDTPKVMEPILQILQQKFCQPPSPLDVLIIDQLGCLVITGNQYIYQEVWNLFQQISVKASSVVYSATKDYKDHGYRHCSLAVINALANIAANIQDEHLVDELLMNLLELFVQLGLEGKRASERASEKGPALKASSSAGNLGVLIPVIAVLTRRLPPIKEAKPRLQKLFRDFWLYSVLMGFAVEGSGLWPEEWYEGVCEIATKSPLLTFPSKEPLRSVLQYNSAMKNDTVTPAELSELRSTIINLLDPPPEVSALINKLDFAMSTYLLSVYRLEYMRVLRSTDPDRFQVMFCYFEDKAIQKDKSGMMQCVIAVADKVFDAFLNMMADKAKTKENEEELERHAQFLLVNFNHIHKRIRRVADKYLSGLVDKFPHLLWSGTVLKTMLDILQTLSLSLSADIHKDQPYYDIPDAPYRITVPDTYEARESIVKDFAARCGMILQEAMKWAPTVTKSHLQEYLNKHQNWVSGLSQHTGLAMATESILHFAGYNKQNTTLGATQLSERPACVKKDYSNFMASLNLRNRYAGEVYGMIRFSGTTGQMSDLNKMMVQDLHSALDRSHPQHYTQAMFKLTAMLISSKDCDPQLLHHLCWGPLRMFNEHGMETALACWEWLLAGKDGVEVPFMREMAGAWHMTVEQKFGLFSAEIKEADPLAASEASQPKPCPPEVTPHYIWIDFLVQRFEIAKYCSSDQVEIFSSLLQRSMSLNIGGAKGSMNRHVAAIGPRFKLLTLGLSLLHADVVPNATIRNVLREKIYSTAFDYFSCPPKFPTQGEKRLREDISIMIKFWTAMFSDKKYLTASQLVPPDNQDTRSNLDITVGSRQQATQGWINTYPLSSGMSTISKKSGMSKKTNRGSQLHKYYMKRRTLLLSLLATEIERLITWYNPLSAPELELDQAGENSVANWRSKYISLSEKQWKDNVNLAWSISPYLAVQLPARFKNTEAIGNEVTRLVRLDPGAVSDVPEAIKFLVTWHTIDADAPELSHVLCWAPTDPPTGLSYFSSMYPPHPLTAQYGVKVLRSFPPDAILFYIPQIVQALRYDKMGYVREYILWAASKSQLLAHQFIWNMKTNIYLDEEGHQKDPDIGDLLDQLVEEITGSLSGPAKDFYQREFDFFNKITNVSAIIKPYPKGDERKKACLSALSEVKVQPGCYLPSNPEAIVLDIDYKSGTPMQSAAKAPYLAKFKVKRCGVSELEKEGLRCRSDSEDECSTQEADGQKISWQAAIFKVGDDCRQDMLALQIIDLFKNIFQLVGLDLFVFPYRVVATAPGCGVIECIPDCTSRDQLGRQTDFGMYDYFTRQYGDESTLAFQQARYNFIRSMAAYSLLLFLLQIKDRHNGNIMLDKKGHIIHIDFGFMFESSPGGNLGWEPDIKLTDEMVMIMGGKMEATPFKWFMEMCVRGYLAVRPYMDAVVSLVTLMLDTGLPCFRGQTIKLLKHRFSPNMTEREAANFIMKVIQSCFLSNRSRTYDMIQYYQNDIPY
UniProt Q9UBF8: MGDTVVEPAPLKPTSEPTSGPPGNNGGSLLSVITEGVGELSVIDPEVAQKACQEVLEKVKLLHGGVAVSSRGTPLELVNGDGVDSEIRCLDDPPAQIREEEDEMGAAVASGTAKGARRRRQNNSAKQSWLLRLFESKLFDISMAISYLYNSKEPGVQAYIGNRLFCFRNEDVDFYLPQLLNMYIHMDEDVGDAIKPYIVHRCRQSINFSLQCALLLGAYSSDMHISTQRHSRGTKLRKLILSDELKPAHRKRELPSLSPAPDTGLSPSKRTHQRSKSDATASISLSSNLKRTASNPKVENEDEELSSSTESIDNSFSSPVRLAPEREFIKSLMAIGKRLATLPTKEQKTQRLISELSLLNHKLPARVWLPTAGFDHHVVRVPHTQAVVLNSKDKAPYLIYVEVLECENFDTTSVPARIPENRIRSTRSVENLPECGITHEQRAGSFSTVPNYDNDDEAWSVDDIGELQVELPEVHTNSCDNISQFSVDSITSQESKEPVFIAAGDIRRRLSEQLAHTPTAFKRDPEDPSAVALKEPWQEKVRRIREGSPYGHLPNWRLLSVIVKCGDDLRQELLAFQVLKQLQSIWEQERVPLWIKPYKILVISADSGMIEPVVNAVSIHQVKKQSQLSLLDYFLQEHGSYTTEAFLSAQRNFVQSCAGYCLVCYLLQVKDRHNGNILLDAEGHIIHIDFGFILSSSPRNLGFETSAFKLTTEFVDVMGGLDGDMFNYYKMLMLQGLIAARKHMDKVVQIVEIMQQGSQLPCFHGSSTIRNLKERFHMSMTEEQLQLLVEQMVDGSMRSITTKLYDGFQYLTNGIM
UniProt Q9BRS2: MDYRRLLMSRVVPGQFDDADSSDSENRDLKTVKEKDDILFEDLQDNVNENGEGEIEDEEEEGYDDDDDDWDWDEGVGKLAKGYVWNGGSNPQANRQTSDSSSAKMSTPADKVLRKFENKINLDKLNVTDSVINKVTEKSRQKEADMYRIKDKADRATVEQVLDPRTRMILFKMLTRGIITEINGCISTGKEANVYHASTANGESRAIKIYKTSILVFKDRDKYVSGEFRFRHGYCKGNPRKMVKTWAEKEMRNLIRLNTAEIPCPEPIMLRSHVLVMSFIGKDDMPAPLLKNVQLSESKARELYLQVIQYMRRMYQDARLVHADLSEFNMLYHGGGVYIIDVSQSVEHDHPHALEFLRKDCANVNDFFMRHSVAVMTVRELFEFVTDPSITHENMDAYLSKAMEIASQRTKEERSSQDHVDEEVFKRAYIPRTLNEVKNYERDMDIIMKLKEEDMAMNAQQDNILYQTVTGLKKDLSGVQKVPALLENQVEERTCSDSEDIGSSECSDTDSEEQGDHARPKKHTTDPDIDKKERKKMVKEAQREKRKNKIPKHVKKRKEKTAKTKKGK
UniProt Q13546: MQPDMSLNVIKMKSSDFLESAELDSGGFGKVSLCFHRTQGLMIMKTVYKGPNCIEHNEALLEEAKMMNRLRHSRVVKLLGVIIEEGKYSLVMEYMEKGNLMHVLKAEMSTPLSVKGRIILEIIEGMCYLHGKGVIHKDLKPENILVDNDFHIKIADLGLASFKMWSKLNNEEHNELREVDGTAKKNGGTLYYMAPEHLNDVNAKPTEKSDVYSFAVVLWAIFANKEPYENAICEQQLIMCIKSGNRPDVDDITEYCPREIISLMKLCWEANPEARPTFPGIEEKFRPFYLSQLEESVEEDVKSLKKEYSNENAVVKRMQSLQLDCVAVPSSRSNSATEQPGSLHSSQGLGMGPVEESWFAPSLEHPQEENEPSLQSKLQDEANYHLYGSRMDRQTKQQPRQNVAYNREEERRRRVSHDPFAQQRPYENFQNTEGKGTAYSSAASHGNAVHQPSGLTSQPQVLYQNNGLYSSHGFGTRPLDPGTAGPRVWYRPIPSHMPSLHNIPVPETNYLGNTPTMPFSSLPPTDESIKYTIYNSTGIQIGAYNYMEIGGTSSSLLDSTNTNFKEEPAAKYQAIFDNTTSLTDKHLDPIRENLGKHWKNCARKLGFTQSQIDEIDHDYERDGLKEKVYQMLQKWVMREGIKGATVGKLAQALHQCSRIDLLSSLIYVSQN
UniProt Q15418, whole entry: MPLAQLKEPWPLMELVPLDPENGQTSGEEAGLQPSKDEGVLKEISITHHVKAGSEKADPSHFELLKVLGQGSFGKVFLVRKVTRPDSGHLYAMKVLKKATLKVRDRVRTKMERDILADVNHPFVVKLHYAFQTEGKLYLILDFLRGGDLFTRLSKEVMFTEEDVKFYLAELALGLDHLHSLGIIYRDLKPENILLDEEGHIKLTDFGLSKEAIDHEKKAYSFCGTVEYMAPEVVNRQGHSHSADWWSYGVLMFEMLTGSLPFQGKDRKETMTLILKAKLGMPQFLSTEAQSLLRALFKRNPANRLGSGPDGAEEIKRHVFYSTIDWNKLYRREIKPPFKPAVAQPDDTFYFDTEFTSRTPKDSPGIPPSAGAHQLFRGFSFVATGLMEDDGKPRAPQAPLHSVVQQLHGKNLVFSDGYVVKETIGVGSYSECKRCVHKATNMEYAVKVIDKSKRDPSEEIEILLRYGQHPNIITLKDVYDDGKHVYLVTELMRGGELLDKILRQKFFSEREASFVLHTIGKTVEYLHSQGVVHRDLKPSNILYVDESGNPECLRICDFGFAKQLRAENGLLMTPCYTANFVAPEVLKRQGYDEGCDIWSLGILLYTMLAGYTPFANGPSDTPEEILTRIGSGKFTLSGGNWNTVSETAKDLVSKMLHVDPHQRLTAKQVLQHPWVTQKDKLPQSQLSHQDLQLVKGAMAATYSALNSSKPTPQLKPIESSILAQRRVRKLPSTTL
UniProt Q9NYA1, whole entry: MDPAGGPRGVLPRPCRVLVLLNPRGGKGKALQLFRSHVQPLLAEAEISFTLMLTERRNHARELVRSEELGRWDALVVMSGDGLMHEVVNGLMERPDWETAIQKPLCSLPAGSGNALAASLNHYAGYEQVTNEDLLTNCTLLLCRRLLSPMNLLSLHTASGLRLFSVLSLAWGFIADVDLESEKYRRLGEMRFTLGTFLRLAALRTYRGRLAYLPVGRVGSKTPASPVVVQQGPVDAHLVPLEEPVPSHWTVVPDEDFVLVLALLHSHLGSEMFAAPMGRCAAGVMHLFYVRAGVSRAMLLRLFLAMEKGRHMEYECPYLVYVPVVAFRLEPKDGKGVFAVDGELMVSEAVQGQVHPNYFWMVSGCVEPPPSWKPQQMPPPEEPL

Assays:
Assay in all cases: kinase-Nluc reporter destabilization hit call (1 = scored as downregulated) (binary); higher = compound decreases kinase abundance
Conditions in all cases: K562; 2-18 h
PDPK1 = PDPK1 (UniProt O15530)
PIK4CA = PIK4CA (UniProt P42356)
PIK4CB = PIK4CB (UniProt Q9UBF8)
PLK1 = PLK1 (UniProt P53350)
PRKAA1 = PRKAA1 (UniProt Q13131)
PRKCA = PRKCA (UniProt P17252)
PTK2 = PTK2 (UniProt Q05397)
PTK2B = PTK2B (UniProt Q14289)
RAF1 = RAF1 (UniProt P04049)
[1] = target: RAF1_S257L (clone: RAF1_mut) (UniProt P04049)
RET = RET (UniProt P07949)
[2] = target: RET_M918T (clone: RET_mut) (UniProt P07949)
RIOK1 = RIOK1 (UniProt Q9BRS2)
RIPK1 = RIPK1 (UniProt Q13546)
RIPK2 = RIPK2 (UniProt O43353)
ROR2 = ROR2 (UniProt Q01974)
RPS6KA1 = RPS6KA1 (UniProt Q15418)
SPHK1 = SPHK1 (UniProt Q9NYA1)
SRC = SRC (UniProt P12931)
STK24 = STK24 (UniProt Q9Y6E0)

Measured: kinase-Nluc reporter destabilization hit call

COc1ccccc1C(=O)/C=C/c1ccccc1C(=O)O (10 µM)
inactive: PDPK1 = 0 | PIK4CA 0 | PIK4CB 0 | PLK1 = 0 | PRKAA1 = 0 | PRKCA 0 | PTK2 = 0 | PTK2B 0 | RAF1 = 0 | [1] 0 | RET 0 | [2] 0 | RIOK1 = 0 | RIPK1 = 0 | RIPK2 = 0 | ROR2 = 0 | RPS6KA1 = 0 | SPHK1 = 0 | SRC 0 | STK24 = 0

Cc1ncc(NC(=O)NC2c3ccccc3-c3ccccc32)c(-c2ccccc2)n1 (10 µM)
inactive: PDPK1 = 0 | PIK4CA 0 | PIK4CB 0 | PLK1 = 0 | PRKAA1 = 0 | PRKCA 0 | PTK2 = 0 | PTK2B 0 | RAF1 = 0 | [1] 0 | RET 0 | [2] 0 | RIOK1 = 0 | RIPK1 = 0 | RIPK2 = 0 | ROR2 = 0 | RPS6KA1 = 0 | SPHK1 = 0 | SRC 0 | STK24 = 0

C=C[C@@](C)(/C=C/c1ccc(O)cc1)CCC=C(C)C [Bakuchiol] (10 µM)
inactive: PDPK1 = 0 | PIK4CA 0 | PIK4CB 0 | PLK1 = 0 | PRKAA1 = 0 | PRKCA 0 | PTK2 = 0 | PTK2B 0 | RAF1 = 0 | [1] 0 | RET 0 | [2] 0 | RIOK1 = 0 | RIPK1 = 0 | RIPK2 = 0 | ROR2 = 0 | RPS6KA1 = 0 | SPHK1 = 0 | SRC 0 | STK24 = 0

COc1cc2ncnc(Nc3ccc(F)c(Cl)c3)c2cc1NC(=O)/C=C/CN1CCCCC1 [Dacomitinib] (10 µM)
inactive: PDPK1 = 0 | PIK4CA 0 | PIK4CB 0 | PLK1 = 0 | PRKAA1 = 0 | PRKCA 0 | PTK2 = 0 | PTK2B 0 | RAF1 = 0 | [1] 0 | RET 0 | [2] 0 | RIOK1 = 0 | RIPK1 = 0 | RIPK2 = 0 | ROR2 = 0 | RPS6KA1 = 0 | SPHK1 = 0 | SRC 0 | STK24 = 0

O=[N+]([O-])c1ccc2c(c1)S(=O)(=O)C=C2 [Stattic] (2.5 µM)
inactive: PDPK1 = 0 | PIK4CA 0 | PIK4CB 0 | PLK1 = 0 | PRKAA1 = 0 | PRKCA 0 | PTK2 = 0 | PTK2B 0 | RAF1 = 0 | [1] 0 | RET 0 | [2] 0 | RIOK1 = 0 | RIPK1 = 0 | RIPK2 = 0 | ROR2 = 0 | RPS6KA1 = 0 | SPHK1 = 0 | SRC 0 | STK24 = 0

CC(=O)N1CCC(c2cc(-c3ccc(NC(=O)c4cccn(-c5ccc(F)cc5)c4=O)cc3F)c3c(N)ncnn23)CC1 (0.5 µM)
inactive: PDPK1 = 0 | PIK4CA 0 | PIK4CB 0 | PLK1 = 0 | PRKAA1 = 0 | PRKCA 0 | PTK2 = 0 | PTK2B 0 | RAF1 = 0 | [1] 0 | RET 0 | [2] 0 | RIOK1 = 0 | RIPK1 = 0 | RIPK2 = 0 | ROR2 = 0 | RPS6KA1 = 0 | SPHK1 = 0 | SRC 0 | STK24 = 0

C[C@@H]1CC(=O)c2c(ccc3c2C(=O)c2cccc(O)c2C3=O)C1 [Ochromycinone] (10 µM)
inactive: PDPK1 = 0 | PIK4CA 0 | PIK4CB 0 | PLK1 = 0 | PRKAA1 = 0 | PRKCA 0 | PTK2 = 0 | PTK2B 0 | RAF1 = 0 | [1] 0 | RET 0 | [2] 0 | RIOK1 = 0 | RIPK1 = 0 | RIPK2 = 0 | ROR2 = 0 | RPS6KA1 = 0 | SPHK1 = 0 | SRC 0 | STK24 = 0

CN1CCC(c2ccccc2CC(C)(C)Nc2nc(N3CCOCC3)nc(-n3c(C(F)F)nc4ccccc43)n2)CC1 [Zandelisib] (10 µM)
inactive: PDPK1 = 0 | PIK4CA 0 | PIK4CB 0 | PLK1 = 0 | PRKAA1 = 0 | PRKCA 0 | PTK2 = 0 | PTK2B 0 | RAF1 = 0 | [1] 0 | RET 0 | [2] 0 | RIOK1 = 0 | RIPK1 = 0 | RIPK2 = 0 | ROR2 = 0 | RPS6KA1 = 0 | SPHK1 = 0 | SRC 0 | STK24 = 0

C=CC(=O)Nc1cc(-n2c(=O)ccc3cnc4ccc(-c5ccc(NS(C)(=O)=O)cc5)cc4c32)ccc1C (10 µM)
inactive: PDPK1 = 0 | PIK4CA 0 | PIK4CB 0 | PLK1 = 0 | PRKAA1 = 0 | PRKCA 0 | PTK2 = 0 | PTK2B 0 | RAF1 = 0 | [1] 0 | RET 0 | [2] 0 | RIOK1 = 0 | RIPK1 = 0 | RIPK2 = 0 | ROR2 = 0 | RPS6KA1 = 0 | SPHK1 = 0 | SRC 0 | STK24 = 0
